According to PMC7217487:
Results are given in words; binding and its absence hold for the method and conditions named. Some entries that bind do so weakly or less than the wild type. Sequences can lack the tags named with a protein. Blank lines part the entries; values can stand above or below the binder they belong to.

Columns and labels:
[1] = biological target: T1, IFN-λR1, full length membrane form (human (endogenous in primary hepatocytes, NHBE cells, PBMCs)) (UniProt Q8IU57); assay: flow cytometry on cells; His-tagged protein (IFN-λ3 1, 2 or 5 μg/ml) in PBS with 1% BSA added to cells on ice for 60 min, washed, detected with anti-His PE; background of the secondary antibody alone subtracted; only the binder purified
T1 sequence: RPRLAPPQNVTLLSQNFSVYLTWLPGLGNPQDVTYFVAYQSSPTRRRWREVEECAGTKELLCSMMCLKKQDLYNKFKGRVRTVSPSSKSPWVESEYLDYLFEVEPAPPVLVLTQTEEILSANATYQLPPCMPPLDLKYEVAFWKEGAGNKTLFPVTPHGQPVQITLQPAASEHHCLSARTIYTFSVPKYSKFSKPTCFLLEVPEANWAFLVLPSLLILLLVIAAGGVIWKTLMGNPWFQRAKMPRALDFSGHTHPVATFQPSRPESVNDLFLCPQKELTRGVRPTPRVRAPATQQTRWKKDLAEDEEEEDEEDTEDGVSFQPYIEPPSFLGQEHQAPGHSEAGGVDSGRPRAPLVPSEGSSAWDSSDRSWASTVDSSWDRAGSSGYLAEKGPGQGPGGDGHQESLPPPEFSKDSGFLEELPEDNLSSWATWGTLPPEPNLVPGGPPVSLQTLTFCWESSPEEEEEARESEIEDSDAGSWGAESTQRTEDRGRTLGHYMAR

[2] = biological target: T2, recombinant sIFN-λR1-Fc (human) (UniProt Q8IU57); assay: flow cytometry on cells; His-tagged IFN-λ3 added to PBMCs or Huh7.5 cells together with sIFN-λR1-Fc, or after sIFN-λR1-Fc had bound to the cells for 45 min on ice and the cells were washed twice; Fc receptors blocked with human IgG; IFN-λ3 detected with anti-His PE; both purified
T2 sequence: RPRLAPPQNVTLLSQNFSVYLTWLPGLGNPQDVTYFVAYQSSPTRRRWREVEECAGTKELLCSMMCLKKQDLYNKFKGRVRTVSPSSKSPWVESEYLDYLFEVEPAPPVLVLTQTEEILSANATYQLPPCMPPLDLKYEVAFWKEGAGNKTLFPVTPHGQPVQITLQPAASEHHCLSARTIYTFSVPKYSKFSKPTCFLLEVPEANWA

binding [1]: binds
binding [2]: binds
B1: His-tagged IFN-λ3 (ligand, UniProt Q8IZI9 22-196)
chain: VPVARLRGALPDARGCHIAQFKSLSPQELQAFKRAKDALEESLLLKDCKCRSRLFPRTWDLRQLQVRERPVALEAELALTLKVLEATADTDPALGDVLDQPLHTLHHILSQLRACIQPQPTAGPRTRGRLHHWLHRLQEAPKKESPGCLEASVTFNLFRLLTRDLNCVASGDLCV

binding [1]: no binding
B2: OBCAM, 6 His-tagged control protein (protein, UniProt Q14982 28-322)
chain: GVPVRSGDATFPKAMDNVTVRQGESATLRCTIDDRVTRVAWLNRSTILYAGNDKWSIDPRVIILVNTPTQYSIMIQNVDVYDEGPYTCSVQTDNHPKTSRVHLIVQVPPQIMNISSDITVNEGSSVTLLCLAIGRPEPTVTWRHLSVKEGQGFVSEDEYLEISDIKRDQSGEYECSALNDVAAPDVRKVKITVNYPPYISKAKNTGVSVGQKGILSCEASAVPMAEFQWFKEETRLATGLDGMRIENKGRMSTLTFFNVSEKDYGNYTCVATNKLGNTNASITLYGPGAVIDGVN
